Test results published in US20040192765A1 (H. Lundbeck A/S, priority 2001, published 2004).
At least one structure is not confirmed: it was looked up by name or label, or the drawing left a doubt.

Tested on: primary care patients with major depression disorder
Assay: 8-week, double-blind, randomised, placebo-controlled, flexible-dose clinical study
Format: in vivo
Conditions: from Week 1 onwards (p<0.05), observed cases, 4-week period
Text: This has i.a. been found in the Chronic Mild Stress model (Wiliner P., Psychopharmachology 1997, 134, 319-329).
A total of 471 patients were randomised into the study. The all-patient-treated set comprised 469 patients and the full-analysis set comprised 468 patients.
There was an approximately 3 to 1 ratio of women to men in each treatment group, and almost all patients were Caucasian. The mean age was 43 years (SD 11). At baseline, the mean MADRS total score was approximately 29 for the treatment group, which signifies moderate to severely ill patients.

## CN(C)CCCC1(c2ccc(F)cc2)OCc2cc(C#N)ccc21 (racemic) [citalopram, reference compound]
  CGI improvement and severity subscale versus placebo: not statistically different from placebo
